# Assay results: PubChem BioAssay (NCATS)
# This list was built around the results that the source calls inconclusive (neither active nor inactive); the mix of calls is not that of the screen. Potencies beside an inconclusive call are fits to weak or partial responses and may not hold up. Active and inactive are the calls of the source. Calls follow the shape of the full dose curve.
# Tested on: Hepatitis C virus NS3/4A protease
# Assay: Selectivity profile for inhibitors of NSP2Pro chikungunya virus (CHIKV): NS34A-HCV Counterscreen (AID 1964106); also: nearly all actives have a fitted effect of over 55% in size
# Conditions: HCV NS3/4A protease biochemical counterscreen; activity change, negative = inhibition: at 50.9 µM (top of the series) unless noted; series mostly up to 50.9 µM
# Text: PI: Natalia J. Martinez Ph.D.
# National Center for Advancing Translational Sciences (NCATS),
# National Institute of Health (NIH), Rockville, Maryland
# Chikungunya virus (CHIKV) is a mosquito-borne RNA virus that has emerged as one of the most important global arboviral threats in the last decade. Although the first CHIKV vaccine has recently been FDA approved for use in healthy adults at increased risk, to date, there are no available antiviral drugs for CHIKV infection. CHIKV nsP2 protease plays a crucial role in the processing of the viral polypeptide precursor to release enzymes required for viral replication, thus making it a promising drug target for antiviral discovery. Here, we established a high-throughput pipeline to identify small molecule inhibitors of nsP2 proteolytic activity. The pipeline is composed of a suite of 1,536-well in vitro assays to support quantitative high-throughput (qHTS) screening campaigns. Specifically, we developed a fluorescence resonance energy transfer (FRET)-based assay using a fluorogenic peptide substrate encompassing an endogenous cleavage site and purified recombinant protease domain (nsP2pro). Using this assay, we interrogated ~37,000 small molecules, including those in drug repurposing libraries as well as chemically diverse and medicinal chemistry-friendly compounds. Hits were selected for follow-up validation against full-length nsP2 and an additional peptide. FRET-based 1,536-well assays for papain, hepatitis C virus NS3-4A, and human furin proteases were implemented to characterize compound selectivity. […] Novel compounds were identified to be potential nsP2 inhibitors and molecular docking analyses were performed to explain the binding mode of selected hits. In vitro antiviral activity was evaluated against a subset of compounds using a high-throughput CHIKV infection assay. To our knowledge, the pipeline presented here is unprecedented for CHIKV antiviral discovery research.
# PROTOCOL TABLE (as described by Inglese J, Shamu CE and Guy RK. 2007)
# SEQUENCE No. (e.g., 1, 2, 3, etc.); […] (e.g., Cells, Incubation, Reagent, etc.); VALUE; DESCRIPTION.
# 1; Enzyme; 2 uL; 1,536-well solid-bottom, black plate (Greiner Bio One).
# 2; Compounds; 20 nL; Echo 655 acoustic dispenser (Beckman Coulter).
# 3; Incubation; 15 min; room temperature in the dark.
# 4: Reagent; 2 uL; Ac-DE-[Lys(5-TAMRA)]-EE-[Abu-psi(COO)Ala]-S-[Lys(ECLIPSE-7)]-amide.
# 5; Detection; Fluorescence; time 0, ViewLux microplate reader (PerkinElmer) 525 nm excitation, 598/25 nm emission
# 6; Incubation; 15 min; room temperature
# 7; Detection; Fluorescence; time 15; ViewLux microplate reader (PerkinElmer), 525 nm excitation, 598/25 nm emission.
# NOTES (numbers refer to sequence numbers above).
# 1. Two microliter of NS3-4A HCV enzyme solution (5 nM final concentration) in assay buffer (20 mM Tris-HCl pH 8.0, 150 mM NaCl, with 0.01% Tween 20) were dispensed into a 1,536-well solid-bottom black plate (Greiner Bio One) using the Kalypsys Pintool Station.
# 2. Twenty nanoliter of compounds, positive control Aprotinin (50 uM final concentration), or neutral control DMSO were transferred to the assay plates. Compounds in counter-screen assays were tested at 11 concentrations, 1:3 dilution points from 25 uM to 0.42 nM.
# 3. The assay plates were incubated in the dark for 15 min.
# 4. After incubation, 2 uL of 0.625 uM substrate (Ac-DE-[Lys(5-TAMRA)]-EE-[Abu-psi(COO)Ala]-S-[Lys(ECLIPSE-7)]-amide) in assay buffer (for NS3-4A assay) was added using the Kalypsys Pintool Station.
# 5-7. Plates were immediately read at time 0 then covered with stainless steel gasket lids and incubated for 15 min at room temperature in the dark. Fluorescence intensity in the assay plates were again read after incubation using the ViewLux imager equipped with Tamara fluorescence optics. The change in fluorescence intensity over the 15-min reaction period was normalized against DMSO and inhibitor controls as described below.
# […]
# % is scaled to controls: 0 for no effect and ±100 for the full control effect; potency is read from the fitted curve at half-maximal effect.
Structure (SMILES),Potency,outcome,"activity change, negative = inhibition"
Cc1nn(CCC#N)c(C)c1[C@@H]1C=C[C@@H](NCc2ccc(C(C)C)cc2)C1,active: 4.21 µM,–,–
CC(=O)N[C@@H](C(=O)O[C@H]1CCC(C)(C)[C@@H]2CCC3=C(COC3=O)[C@@]12C)C(C)C,–,inactive [at 33.5 µM],–
C=C1C(=O)O[C@@H]2[C@H]1[C@H](O)C[C@]1(C)[C@@H](O)CC=C(C)[C@@H]21,–,inactive,–
CC(C)CCNC(=O)[C@H](CC(C)C)NC(=O)[C@H]1O[C@@H]1C(=O)NCc1cccc(C#N)c1,–,–,inactive: 5.83%
O=C1C=CC2OC(c3ccccc3)C(O)C2O1 (stereo not given),"inconclusive: 23.1 µM [inhibitor, partial curve, poor fit]",–,–
O=C1C2CC=CCC2C(=O)N1SC(Cl)(Cl)Cl (stereo not given),"inconclusive: 16.3 µM [inhibitor, partial curve]",–,–
Oc1cccc(O)c1O,active: 3.26 µM,–,–
O=C1C(=Cc2cccnc2)C(=O)c2ccccc21,"inconclusive: 4.61 µM [inhibitor, full curve]",–,–
Cc1cc(C)nc(NC(=S)N2CCN(c3ccc4nsnc4c3)CC2)c1,"inconclusive: 14.6 µM [inhibitor, partial curve]",–,–
CCC(=O)O[C@H]1C(C)(C)[C@H]([C@@H](O)C(=O)OC)[C@]2(C)C(=O)[C@@]1(O)[C@H]1O[C@]13C1CC(=O)O[C@@H](c4ccoc4)[C@]1(C)CCC32 (stereo not given in full),"inconclusive: 5.44 µM [inhibitor, partial curve]",–,–
Cc1nc(C2CCCN2Cc2ccc(-c3ccn[nH]3)o2)cs1 (stereo not given),"inconclusive: 13 µM [inhibitor, partial curve]",–,–
COc1ccc([N+](=O)[O-])c(S(=O)(=O)c2ccccc2)n1,"inconclusive: 6.51 µM [inhibitor, full curve]",–,–
CN(C)C(=S)SC(=S)N(C)C,"inconclusive: 4.11 µM [inhibitor, single point]",–,–
Oc1cc2c(cc1CN1CCN(c3ncccn3)CC1)OCO2,"inconclusive: 14.6 µM [inhibitor, partial curve, poor fit]",–,–
Oc1ccc(OC2CCCCO2)cc1 (stereo not given),"inconclusive: 41 µM [inhibitor, partial curve, poor fit]",–,–
CN1CCc2nc(C(=O)N[C@@H]3C[C@@H](C(=O)N(C)C)CC[C@@H]3NC(=O)C(=O)Nc3ccc(Cl)cn3)sc2C1,–,inactive,–
O=C(O)CCc1ccc(-c2cccs2)n1CC(=O)Nc1ccccc1C(F)(F)F,–,–,inactive: 5%
CC1(C)O[C@H]2CC(=O)OC[C@@]23C1=C(O)C(=O)[C@]1(C)C3CC[C@@]2(C)[C@H](c3ccoc3)OC(=O)[C@H]3O[C@]321 (stereo not given in full),"inconclusive: 20 µM [inhibitor, partial curve, poor fit]",–,–
O=C(O)/C=C/c1ccc(O)c(O)c1,"inconclusive: 1.3 µM [inhibitor, full curve]",–,–
CCOc1ccc(-c2noc(CNC(=O)c3cc(-c4ccco4)[nH]n3)n2)cn1,–,–,inactive: -15.5%

# Rewritten as tab-separated lines: part of the list above
Structure (SMILES)	Potency	outcome	activity change, negative = inhibition
CCC(=O)O[C@H]1C(C)(C)[C@H]([C@@H](O)C(=O)OC)[C@]2(C)C(=O)[C@@]1(O)[C@H]1O[C@]13C1CC(=O)O[C@@H](c4ccoc4)[C@]1(C)CCC32 (stereo not given in full)	inconclusive: 5.44 µM [inhibitor, partial curve]	–	–
Cc1nc(C2CCCN2Cc2ccc(-c3ccn[nH]3)o2)cs1 (stereo not given)	inconclusive: 13 µM [inhibitor, partial curve]	–	–

# (further entries)

Structure (SMILES),Potency,outcome,"activity change, negative = inhibition"
CC1=CC2=C(C)C(=O)[C@](C)(O)[C@H](O)C2=CO1,–,inactive,–
COc1ccc(-c2ccc(NC(=O)c3cccs3)cn2)cc1,"inconclusive: 25.9 µM [inhibitor, single point]",–,–
CC(C)(O)C1OC1C1=CC(=O)C2(C)OC2C1O (stereo not given),"inconclusive: 2.91 µM [inhibitor, full curve]",–,–
Cc1ccc(N[S+](=O)([O-])c2cc3c(cc2N[C@@H](C)CO)NC(=O)CC3)cc1N[C@@H](C)CO,"inconclusive: 16.3 µM [inhibitor, partial curve]",–,–
Clc1ncoc1-c1c[nH]c2ccccc12,–,inactive,–
CCN(CC)C(=S)SSC(=S)N(CC)CC,"inconclusive: 2.31 µM [inhibitor, full curve]",–,–
Cc1ccc(S(=O)(=O)Nc2cc(Cl)c(O)c3ccccc23)c(C)c1,"inconclusive: 1.63 µM [inhibitor, full curve]",–,–
C=C(C)CNc1ccc(C(C)C(=O)O)cc1 (stereo not given),–,inactive,–
Cc1nn(-c2ccc(C(F)(F)F)cc2)c(C)c1[C@@H]1C=C[C@@H](NC(=O)NC(C)C)C1,active: 11.9 µM,–,–
CC(O)c1ccc(-c2ccc3ncnc(N4CCOCC4)c3c2)o1 (stereo not given),active: 20.6 µM,–,–
COC[C@H]1OC(=O)c2coc3c2[C@@]1(C)C1=C(C3=O)C2CCC(=O)[C@@]2(C)C[C@H]1OC(C)=O (stereo not given in full),–,inactive,–
COCC1CN(Cc2ccc(Br)s2)CC12CCNCC2 (stereo not given),"inconclusive: 18.3 µM [inhibitor, partial curve]",–,–
CC(C)(O)C1CC(=O)C2(C)C(CCC3(C)C(c4ccoc4)OC(=O)C4OC432)C12CCC(=O)OC2 (stereo not given),"inconclusive: 4 µM [inhibitor, partial curve]",–,–
Cc1cccc(C(=O)Nc2ccc(N3CCC(CCN4CCOCC4)CC3)c(C(=O)O)c2)c1,"inconclusive: 36.6 µM [inhibitor, partial curve, poor fit]",–,–
CC(=O)OC(CSC1CCC(=O)OC(C)CCC(=O)C1)C(=O)O (stereo not given),"inconclusive: 6.38 µM [inhibitor, partial curve]",–,–
COc1ccc(C(=O)N(Cc2ccco2)Cc2ccco2)c(O)c1,"inconclusive: 29.1 µM [inhibitor, partial curve]",–,–
CC(C)COC(=O)N1[C@@H](c2ccco2)[C@@H](CO)C[C@]12CCCCNC2=O,"inconclusive: 18.3 µM [inhibitor, partial curve]",–,–
C=C1C(=O)O[C@H]2C3=C(C)CCC[C@]3(C)C(=O)C[C@@H]12,–,inactive,–
CC1=C2C[C@@]3(C)C(CCC[C@@H]3C)C(O)C2OC1=O (stereo not given in full),–,inactive,–
Cc1ccc(-n2c(C)cc(-c3nnc4n3CCCCC4)c2C)cc1,"inconclusive: 18.3 µM [inhibitor, partial curve]",–,–
